Experimental data published in article PMC10223906.
These are yes or no findings as the source states them, for the method shown. In cells and extracts the contact can be indirect. Some results given as binding are weak or reduced against the parent protein; the word gives no strength.

Key:
[1] = biological target: Wild-type p53 (human (endogenous in HCT116)) (UniProt P04637); assay: proximity ligation; PLA of p53 and ATF2 in HCT116 control cells (no 5-FU); Suppl. Figure S5b
[2] = biological target: Wild-type p53 (human (endogenous in HCT116)) (UniProt P04637); assay: proximity ligation; PLA of p53 and ATF2 in HCT116 cells upon 5-FU exposure; Suppl. Figure S5b

B1: ATF2 (protein, UniProt P15336 1-505)
chain: MKFKLHVNSARQYKDLWNMSDDKPFLCTAPGCGQRFTNEDHLAVHKHKHEMTLKFGPARNDSVIVADQTPTPTRFLKNCEEVGLFNELASPFENEFKKASEDDIKKMPLDLSPLATPIIRSKIEEPSVVETTHQDSPLPHPESTTSDEKEVPLAQTAQPTSAIVRPASLQVPNVLLTSSDSSVIIQQAVPSPTSSTVITQAPSSNRPIVPVPGPFPLLLHLPNGQTMPVAIPASITSSNVHVPAAVPLVRPVTMVPSVPGIPGPSSPQPVQSEAKMRLKAALTQQHPPVTNGDTVKGHGSGLVRTQSEESRPQSLQQPATSTTETPASPAHTTPQTQSTSGRRRRAANEDPDEKRRKFLERNRAAASRCRQKRKVWVQSLEKKAEDLSSLNGQLQSEVTLLRNEVAQLKQLLLAHKDCPVTAMQKKSGYHTADKDDSSEDISVPSSPHTEAIQHSSVSTSNGVSSTSKAEAVATSVLTQMADQSTEPALSQIVMAPSSQSQPSGS
- binding [1]: no binding (condition: control cells without 5-FU)
- binding [2]: binds
